## Primary screen of a compound library

Chains of the proteins cited; added tags and fusions are not shown.
UniProt E9BF75, entry or part of it: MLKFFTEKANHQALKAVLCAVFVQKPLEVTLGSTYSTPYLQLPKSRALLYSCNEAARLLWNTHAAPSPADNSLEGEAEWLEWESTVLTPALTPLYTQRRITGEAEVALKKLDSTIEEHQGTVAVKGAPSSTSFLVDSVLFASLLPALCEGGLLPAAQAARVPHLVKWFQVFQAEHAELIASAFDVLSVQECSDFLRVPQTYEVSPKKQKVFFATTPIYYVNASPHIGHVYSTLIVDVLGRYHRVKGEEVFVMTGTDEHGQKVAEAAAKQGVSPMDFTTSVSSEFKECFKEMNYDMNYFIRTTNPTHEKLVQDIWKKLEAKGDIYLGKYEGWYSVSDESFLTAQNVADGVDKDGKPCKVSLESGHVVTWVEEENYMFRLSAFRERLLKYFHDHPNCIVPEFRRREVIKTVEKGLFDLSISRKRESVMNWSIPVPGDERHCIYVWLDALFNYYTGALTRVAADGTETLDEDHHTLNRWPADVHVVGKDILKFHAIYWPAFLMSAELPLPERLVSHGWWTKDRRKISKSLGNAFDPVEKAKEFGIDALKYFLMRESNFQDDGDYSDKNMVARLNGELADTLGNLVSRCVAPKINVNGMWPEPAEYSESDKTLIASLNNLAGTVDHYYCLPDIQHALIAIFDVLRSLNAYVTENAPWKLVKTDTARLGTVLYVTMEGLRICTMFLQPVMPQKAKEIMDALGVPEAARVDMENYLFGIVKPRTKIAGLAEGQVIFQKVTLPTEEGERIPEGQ

From ChEMBL document CHEMBL3988442, “University of Dundee, Small-Polar-MMV Screening Library” (2021).

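Methionyl-tRNA synthetase (putative), Leishmania donovani (UniProt E9BF75). Primary screen of methionyl-tRNA synthetase; the read-out is not stated. The test concentration is not given. The values are filed as inhibition. About 68,000 compounds were tested under these conditions; 0.035% (about 24) showed 50% or more at least once.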

Results are percentages, as filed.
How 0% and 100% were set is not recorded. Most values in the screen are low, and negative values occur.
The compounds are a random part of those screened.

| # | structure | inhibition |
|---|---|---|
| 1 | `CSc1ncccc1C(=O)N1C[C@H]2CC[C@@H]1CN(C(C)=O)C2` | 9.365 |
| 2 | `Fc1cnc(N2CCO[C@H]3[C@H](OCC4CCOCC4)CC[C@@H]32)nc1` | 16.1 |
| 3 | `CN(Cc1ccc([S+](C)[O-])cc1)c1cncc(Cl)n1` (stereo not given) | 16.43 |
| 4 | `CC(C)CN1CC2(CCN(C(=O)c3nc4ncccn4n3)CC2)CC1=O` | 15.68 |
| 5 | `CC(C)Oc1cccc(CC(=O)N(CC(N)=O)C2CCCC2)c1` | 11.45 |
| 6 | `C1CC(CN2C[C@H]3CC[C@@H]2CN(Cc2noc(C4CCCC4)n2)C3)C1` | 17.08 |
| 7 | `O=C(CCc1ccsc1)NCC1CCN(Cc2cccs2)CC1` | 15.22 |
| 8 | `CCS(=O)(=O)c1ccc2oc([C@H]3CCN(Cc4ccncc4)C3)nc2c1` | 6.015 |
| 9 | `Cc1c[nH]c(CN(C)C(=O)[C@]23CNC[C@H]2CNC3)n1` | 11.04 |
| 10 | `Cc1nc(O)cc(CNC(=O)CC[C@@H]2CCCN3CCCC[C@H]23)n1` | 10.67 |
| 11 | `CC(C)n1ccnc1C1CCCN(c2nc3ccccc3s2)C1` (stereo not given) | 17.88 |
| 12 | `COc1ccccc1NC(=O)C1(c2ccccc2)CCOCC1` | 11.02 |
| 13 | `N#Cc1cccc(NC(=O)N[C@H](CO)Cc2ccc(O)cc2)c1` | 7.553 |
| 14 | `CN(C)CCN1C(=O)CCC12CCCN(C(=O)N(C)C)CC2` (stereo not given) | 14.57 |
| 15 | `O=C(c1ccc[nH]1)N1CCN(Cc2ccncc2)c2ncccc2C1` | 7.945 |
| 16 | `Cc1ccc2c(c1)c(CNC(=O)C1CC(=O)N(C3CC3)C1)nn2C` (stereo not given) | -2.338 |
| 17 | `COc1ccc(CN2CCN(CCn3ccnc3)CC2)cc1F` | 16.53 |
| 18 | `COCCN1CCCC(O)(CN2CCN(c3cnccn3)CC2)C1=O` (stereo not given) | 15.93 |
| 19 | `Cc1nccn1-c1cccc(C2CCCN2S(=O)(=O)N(C)C)n1` (stereo not given) | 15.03 |
| 20 | `CC1(C(=O)N2CCN(c3ncccn3)CC2)CNCCO1` (stereo not given) | 6.854 |
| 21 | `CC(C)(C)NC(=O)[C@@H]1Cc2ccccc2CN1Cc1cccs1` | 4.396 |
| 22 | `CCn1ccnc1CN1CCN(c2ccc3nnc(C)n3n2)CC1` | 6.522 |
| 23 | `CCOC(=O)C1(Cc2ccccc2-c2ccccc2OC)CCNCC1` | 17.09 |
| 24 | `CC(C)(C)c1nnc2n1C(C(=O)N1CCOCC1)CC2` (stereo not given) | 12.57 |
| 25 | `CN1CC(Oc2ccccc2)=NC(SCC(=O)c2ccccc2)=N1` | 9.774 |
| 26 | `COc1ccc(N2CCN(C(=O)c3cc(=O)c(OC)c[nH]3)CC2)cc1` | 19.3 |
| 27 | `COCC(=O)N1CCC2(CC1)COCCN2CCN(C)C` | 10.46 |
| 28 | `Cc1ncsc1CN1CCO[C@H]2[C@H](Oc3ccccn3)CC[C@@H]21` | 17.04 |
| 29 | `Cc1ccccc1-c1noc(C2CC(C(C)C)=NO2)n1` (stereo not given) | 13.87 |
| 30 | `CCOCC1CN(C(=O)Cc2ccccn2)Cc2cn(CC)nc21` (stereo not given) | 7.19 |
| 31 | `Cc1ccc2nc(C3CCCN3Cc3nnc(C)s3)[nH]c2c1` (stereo not given) | -2.235 |
| 32 | `CN1CCCCC12CCN(C(=O)c1cccn1C)CC2` | 13.87 |
| 33 | `Cc1[nH]c2ccccc2c1-c1ccnc(NCCN2CCCCC2)n1` | 17.23 |
| 34 | `CCCn1cc(Cl)c(C(=O)N2C[C@@H](O)[C@H](NC(C)=O)C2)n1` | 13.08 |
| 35 | `CC(C)CCNc1nnc(C(C)C)s1` | 80.12 |
| 36 | `Cc1noc(C2CCC3(CCN(C(=O)c4cc(C5CC5)on4)CC3)O2)n1` (stereo not given) | 14.21 |
| 37 | `Cn1cc(C(=O)N2C[C@@H]3CN(S(C)(=O)=O)CCO[C@@H]3C2)cn1` | 14.21 |
| 38 | `COc1cc(F)ccc1N1CCN(Cc2nnc(C3CC3)o2)CC1` | 1.761 |
| 39 | `CCc1nc(C2CCCN2C(=O)c2ccc3c(c2)nnn3C)no1` (stereo not given) | 1.445 |
| 40 | `Cc1nc(-c2ccsc2)ccc1C(=O)NC(C)CN1CCOCC1` (stereo not given) | 21.31 |
| 41 | `CCc1noc(CNCCn2cc(C)cn2)n1` | 23.46 |
| 42 | `Cc1ccc(OCc2occc2C(=O)N2CCOC(C(=O)O)C2)cc1` (stereo not given) | 1.961 |
| 43 | `Cn1cc(CN2CCn3cnc(COCC4CC4)c3C2)cn1` | 7.492 |
| 44 | `CN(C)C(C(=O)NCc1cc(C(C)(C)C)n[nH]1)c1ccc(F)cc1` (stereo not given) | 11.04 |
| 45 | `O=C(NCc1ccccc1)N1CCc2ncnc(NC3CC3)c2CC1` | 11.89 |
| 46 | `COc1ccc(C2=Nn3c(CCN)nnc3-c3ccccc3C2)cc1` | 31.16 |
| 47 | `CCn1nc2c(cc1=O)CN(Cc1nnc(C3CC3)o1)CC2` | 7.311 |
| 48 | `COC(=O)CCn1ccc(=O)c2cc(F)ccc21` | 20.4 |
| 49 | `CS(=O)(=O)N1CC2(CCN(c3nccs3)CC2)c2ccccc21` | 14.88 |
| 50 | `CS(=O)(=O)Cc1nc(CCc2ccccc2)nn1-c1ccccn1` | 3.509 |
| 51 | `CN1CCCC1c1ccnc(-c2ccccc2)n1` (stereo not given) | 12.6 |
| 52 | `Cc1ccc(NC(=O)Nc2cnc(N3CCN(C)CC3)nc2)c(Cl)c1` | 21.57 |
| 53 | `NC(=O)c1cccc(-c2cnc(C3CCCNC3)cn2)c1` (stereo not given) | 8.721 |
| 54 | `COCC1CN(CC2CCOCC2)Cc2cn(CC3CCCC3)nc21` (stereo not given) | 7.299 |
| 55 | `CCNc1cc2c(nn1)CCN(C(=O)c1cc3nc(C)ccc3o1)C2` | 15.38 |
| 56 | `CN(C)c1nc(NCCc2cnccn2)ncc1F` | 21.14 |
| 57 | `CC1(C)C(C(=O)NCCC2CN(Cc3c[nH]cn3)CCO2)C1(C)C` (stereo not given) | 18.56 |
| 58 | `Cc1noc(C)c1CCCNC(=O)C1CCN(C(=O)C2CC2)CC1` | 6.643 |
| 59 | `NCC1[C@H]2CN(Cc3cccc(Cl)c3)C[C@@H]12` (stereo not given in full) | 17.93 |
| 60 | `CS(=O)(=O)Cc1nc(CN2CC=C(c3ccccc3)CC2)cs1` | 7.436 |
| 61 | `N#CC1CCCN(c2nc(-c3ccccc3)nc3c2CCNCC3)C1` (stereo not given) | 13.5 |
| 62 | `Cc1ccc(N2CCCC(c3[nH]ncc3-c3ccccc3)C2)nn1` (stereo not given) | 7.532 |
| 63 | `Cc1cccc(C(=O)N2CCC(C(=O)c3cc(F)ccc3F)CC2)n1` | 24.31 |
| 64 | `Cc1nc(C2CCCN2CCc2ccccn2)no1` (stereo not given) | 8.505 |
| 65 | `CC(NC(=O)NCCCn1cccn1)c1ccc2c(c1)OCCCO2` (stereo not given) | 4.127 |